The test system of this assay is BDF1 mice, B16 melanoma ip, median survival T/C. Briefly: NCI In Vivo Anticancer Drug Screen. Data for tumor model B16 Melanoma (intraperitoneal) in B6D2F1 (BDF1) mice. The conditions noted are these: T/C endpoint: median survival time, schedule: Q01DX009 (ip), higher T/C = longer survival. The gist of the method:
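Survival or tumor size is measured after treatment of tumor-bearing mice and normalised to the vehicle-treated control group.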

The list does not hold the whole screen: it gathers tests that were run many times, whatever their T/C, doses with no T/C, and many T/C values between a quarter and a half above the control. Further doses and runs are listed elsewhere. T/C: endpoint of the treated group in % of that of the vehicle group. Some entries give survivors of the animals treated and no T/C: the source holds a T/C of zero for them, seemingly a mark for toxic or unscored doses. Some doses without a T/C left all or most animals alive at the check, yet need not have been tolerated: the source hardly ever lists a survival T/C far under the control, and the zero likely stands for such cases as well. Survivors were counted at the toxicity check, usually on the fifth day, unless a day is given; later deaths do not show. Schedules are NCI's codes, read here as Q, the interval in days (D) or hours (H), X, the number of doses. Some doses were run more than once; the results are listed from low to high.

Take `Cc1c(CNc2ccc(C(=O)NC(CC(=O)O)C(=O)O)cc2)ccc2nc(N)nc(N)c12` (configuration not stated): the survivor count reads like this: (dose: 0.39 mg/kg/injection, vehicle: saline) 10 of 10; (dose: 0.78 mg/kg/injection, vehicle: saline) 8 of 10 and 10 of 10; (dose: 1.56 mg/kg/injection, vehicle: saline with Tween-80) 10 of 10; (dose: 1.56 mg/kg/injection, vehicle: saline) 7 of 10 and 8 of 10; (dose: 3.12 mg/kg/injection, vehicle: saline with Tween-80) 8 of 10; (dose: 3.12 mg/kg/injection, vehicle: saline) 6 of 10. For the same compound, the survivor count (dose: 6.25 mg/kg/injection, vehicle: saline with Tween-80) was 9 of 10; the survivor count (dose: 6.25 mg/kg/injection, vehicle: saline) was 4 of 10; the survivor count (dose: 12.5 mg/kg/injection, vehicle: saline with Tween-80) is 10 of 10; the survivor count (dose: 12.5 mg/kg/injection, vehicle: saline) is reported as 0 of 10; the survivor count (dose: 25.0 mg/kg/injection, vehicle: saline with Tween-80) is 9 of 10; the survivor count (dose: 25.0 mg/kg/injection, vehicle: saline) was 5 of 10.
Regarding `OCc1ccccc1NCc1ccccc1`, the survivor count (dose: 200.0 mg/kg/injection, vehicle: other) is listed as 10 of 10.
With `Cc1ccc(NC(=O)CCl)cc1C`, under “dose: 50.0 mg/kg/injection, vehicle: saline with Tween-80”, the survivor count is recorded as 10 of 10.
For `CC(OCc1ccccc1)C(NC(=O)OC(C)(C)C)C(=O)O` (configuration not stated), the survivor count by setting is: (dose: 100.0 mg/kg/injection, vehicle: saline with Tween-80) 10 of 10; (dose: 200.0 mg/kg/injection, vehicle: saline with Tween-80) 10 of 10; (dose: 400.0 mg/kg/injection, vehicle: saline with Tween-80) 9 of 10.
